Measurements reported in PubChem BioAssay AID1259254 (NCATS, 2017).

Screen: 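Gene knock-downs that lead to re-replication, shown by excess G2 DNA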 (primary screen)
Cell system: human HCT116 colorectal cancer cells
Reagent: single siRNA against human genes
Duration: 3 days
Measured: 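Imaged Hoechst DNA stain sorts each cell into a cycle phase by DNA amount; per plate, G2 fraction set to 0% for non-targeting and 100% for GMNN siRNA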
Reading the numbers: G2 robust z-score: higher = more G2 cells, more excess DNA replication
Hit rule: 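Active siRNAs have a G2 robust z of 5 or more median absolute deviations over the median, which in these data means about 38% or higher of GMNN control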
This is one part, drawn at random, of about 59,000 deposited reagents. Of all reagents, about 1,550 (2.6%) got an active call. 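G2 share is only a proxy for re-replication; each gene was hit by three separate siRNAs, and active genes were retested.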 Reagents against one gene are numbered here. Not all columns of the deposit are shown. Not given: the amount of reagent.

{"target":"OR2C3 (olfactory receptor family 2 subfamily C member 3)","reagent":1,"G2 robust z-score":2.68,"Outcome":"inactive"}
{"target":"OR2C3 (olfactory receptor family 2 subfamily C member 3)","reagent":2,"G2 robust z-score":2.52,"Outcome":"inactive"}
{"target":"OR2C3 (olfactory receptor family 2 subfamily C member 3)","reagent":3,"G2 robust z-score":-0.85,"Outcome":"inactive"}
{"target":"SBK1 (SH3 domain binding kinase 1)","reagent":1,"G2 robust z-score":1.8,"Outcome":"inactive"}
{"target":"SBK1 (SH3 domain binding kinase 1)","reagent":2,"G2 robust z-score":-0.694,"Outcome":"inactive"}
{"target":"SBK1 (SH3 domain binding kinase 1)","reagent":3,"G2 robust z-score":3.03,"Outcome":"inactive"}
{"target":"DIO2 (iodothyronine deiodinase 2)","reagent":1,"G2 robust z-score":-1.12,"Outcome":"inactive"}
{"target":"DIO2 (iodothyronine deiodinase 2)","reagent":2,"G2 robust z-score":0.587,"Outcome":"inactive"}
{"target":"DIO2 (iodothyronine deiodinase 2)","reagent":3,"G2 robust z-score":-0.892,"Outcome":"inactive"}
{"target":"NKX2-6 (NK2 homeobox 6)","reagent":1,"G2 robust z-score":0.798,"Outcome":"inactive"}
{"target":"NKX2-6 (NK2 homeobox 6)","reagent":2,"G2 robust z-score":0.789,"Outcome":"inactive"}
{"target":"NKX2-6 (NK2 homeobox 6)","reagent":3,"G2 robust z-score":-1.51,"Outcome":"inactive"}
{"target":"CLIP1 (CAP-Gly domain containing linker protein 1)","reagent":1,"G2 robust z-score":-0.661,"Outcome":"inactive"}
{"target":"CLIP1 (CAP-Gly domain containing linker protein 1)","reagent":2,"G2 robust z-score":1.09,"Outcome":"inactive"}
{"target":"CLIP1 (CAP-Gly domain containing linker protein 1)","reagent":3,"G2 robust z-score":2.62,"Outcome":"inactive"}
{"target":"WDR55 (WD repeat domain 55)","reagent":1,"G2 robust z-score":-0.661,"Outcome":"inactive"}
{"target":"WDR55 (WD repeat domain 55)","reagent":2,"G2 robust z-score":0.853,"Outcome":"inactive"}
{"target":"WDR55 (WD repeat domain 55)","reagent":3,"G2 robust z-score":-0.778,"Outcome":"inactive"}
